Assay results from the supplement of paper PMC10503962.
Some of the results follow. Many values rest on one well or one pass, so single values are uncertain.

Test system: Trichuris muris adult worms
Assay: median motility score (Paragon pixel variance) of adult worms (arbitrary units); higher = more motile worms
Conditions: 24 h

Compound | median motility score (20 µM) | median motility score (50 µM) | median motility score (100 µM)
CC(C)[C@H]1CC[C@H](C(=O)N[C@H](Cc2ccccc2)C(=O)O)CC1 [nateglinide] | 1690 | 1030 | 2140
COC(=O)C1=C(C)NC(C)=C(C(=O)OCC(C)C)C1c1ccccc1[N+](=O)[O-] (stereo not given) [nisoldipine] | 775 | 2110 | 1120
Cc1cccc(C)c1NC(=O)C1CCCCN1C (stereo not given) [mepivacaine] | 3830 | 4510 | 2340
CCN(CC)CC(=O)Nc1c(C)cccc1C [lidocaine] | 760 | 2720 | 3180
CN(C)CCC=C1c2ccccc2C=Cc2ccccc21.Cl [cyclobenzaprine hydrochloride] | 4270 | 3570 | 1300
CC(CN(C)C)CN1c2ccccc2CCc2ccccc21.O=C(O)/C=C/C(=O)O (stereo not given) [trimipramine fumarate] | 2200 | 1880 | 1040
Cc1cc(C)cc(OCC2CNC(=O)O2)c1 (stereo not given) [metaxalone] | 1790 | 2710 | 2290
O=C(O)CCCCCCCC(=O)O [azelaic acid] | 2710 | 3320 | 3510
COC(=O)C1=C(C)NC(C)=C(C(=O)OC(C)C)C1c1cccc2nonc12 (stereo not given) [isradipine] | 32 | 2400 | 1330
CN(C)CCOC(c1ccccc1)c1ccccc1 [diphenhydramine] | 2430 | 2130 | 2070
CCCCOCCOCCOCc1cc2c(cc1CCC)OCO2 [piperonyl butoxide] | 1030 | 3720 | 2110
CC(C)NCC(O)COc1ccc(COCCOC(C)C)cc1 (stereo not given) [bisoprolol] | 1340 | 1590 | 1910
Cl.OC(CCN1CCCC1)(c1ccccc1)C1CCCCC1 (stereo not given) [procyclidine hydrochloride] | 2080 | 5100 | 3520
CN(C)CC/C=C1\c2ccccc2COc2ccccc21.Cl [doxepin hydrochloride] | 2550 | 5300 | 4490
Cc1ccc(/C(=C\CN2CCCC2)c2ccccn2)cc1 [triprolidine] | 2920 | 2230 | 3220
Cl.Cl.OCCOCCN1CCN(C(c2ccccc2)c2ccc(Cl)cc2)CC1 (stereo not given) [hydroxyzine dihydrochloride] | 3900 | 4030 | 3330
Clc1ccc(CCC(Cn2ccnc2)Sc2c(Cl)cccc2Cl)cc1.O=[N+]([O-])O (stereo not given) [butoconazole nitrate] | 0 | 2070 | 0
N[C@@H](Cc1c[nH]c2ccccc12)C(=O)O [L-tryptophan] | 3110 | 4110 | 3200
COc1ccccc1OCC(O)COC(N)=O (stereo not given) [methocarbamol] | 3880 | 1810 | 2620
CC(=O)Oc1c(C)cc(OCC(O)CNC(C)C)c(C)c1C (stereo not given) [metipranolol] | 1880 | 2230 | 1900
COc1cc2nc(N3CCN(C(=O)c4ccco4)CC3)nc(N)c2cc1OC [prazosin] | 20 | 503 | 20
CCCCCCCCCCCCCCCCCCCCCCO [docosanol] | 2070 | 4280 | 3850
Fc1ccc(C(c2ccc(F)cc2)N2CCN(C/C=C/c3ccccc3)CC2)cc1 [flunarizine] | 4280 | 870 | 0
CNCCC(Oc1ccc(C(F)(F)F)cc1)c1ccccc1.Cl (stereo not given) [fluoxetine hydrochloride] | 4770 | 4520 | 3980
OC(Cn1cncn1)(Cn1cncn1)c1ccc(F)cc1F [fluconazole] | 1140 | 4460 | 3500
CN1CCN2c3ncccc3Cc3ccccc3C2C1 (stereo not given) [mirtazapine] | 5520 | 4510 | 4550
Cc1ccccc1C(OCCN(C)C)c1ccccc1.Cl (stereo not given) [orphenadrine hydrochloride] | 4580 | 2100 | 2680
COc1ccccc1OCC(O)CN1CCN(CC(=O)Nc2c(C)cccc2C)CC1 (stereo not given) [ranolazine] | 3170 | 2460 | 2560
COc1cc2c3cc1Oc1cc(ccc1O)C[C@@H]1c4c(cc(OC)c(O)c4Oc4ccc(cc4)C[C@@H]3N(C)CC2)CC[N+]1(C)C.Cl.[Cl-] [tubocurarine chloride] | 690 | 3850 | 1190
CCCCCCCCCc1ccc(OCCOCCOCCOCCOCCOCCOCCOCCOCCO)cc1 [nonoxynol 9] | 3010 | 2340 | 0

Fetched by structure from the list above:
Compound | median motility score (20 µM) | median motility score (50 µM) | median motility score (100 µM)
COc1ccccc1OCC(O)COC(N)=O (stereo not given) [methocarbamol] | 3880 | 1810 | 2620
COC(=O)C1=C(C)NC(C)=C(C(=O)OCC(C)C)C1c1ccccc1[N+](=O)[O-] (stereo not given) [nisoldipine] | 775 | 2110 | 1120
